Assay results: article PMC5778034
No constants are given. Whether binding was seen depends on the method and setting. Binding seen in cells or lysates may run through a third protein. Here binding means that the protein was enriched with, or labelled near, the bait; the list need not be complete.

The chains behind the UniProt entries cited, without tags or fusion partners.
UniProt P31749: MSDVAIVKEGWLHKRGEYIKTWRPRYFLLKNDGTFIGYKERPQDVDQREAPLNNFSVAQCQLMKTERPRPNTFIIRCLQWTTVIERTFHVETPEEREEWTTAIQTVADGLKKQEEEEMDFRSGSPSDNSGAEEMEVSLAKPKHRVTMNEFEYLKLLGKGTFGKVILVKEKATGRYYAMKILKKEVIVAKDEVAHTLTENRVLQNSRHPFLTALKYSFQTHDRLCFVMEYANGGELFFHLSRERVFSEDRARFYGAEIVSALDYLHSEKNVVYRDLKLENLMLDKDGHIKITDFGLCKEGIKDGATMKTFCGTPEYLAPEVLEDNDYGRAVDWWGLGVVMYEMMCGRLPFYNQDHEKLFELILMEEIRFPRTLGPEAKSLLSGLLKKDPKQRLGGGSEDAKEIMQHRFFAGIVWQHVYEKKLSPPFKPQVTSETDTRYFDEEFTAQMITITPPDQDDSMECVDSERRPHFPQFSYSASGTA

Columns and labels:
Akt1 (PKBα) (human) [1] = target: Akt1 (PKBα) (human) (UniProt P31749); assay: affinity purification with mass spectrometry; as a1, medium (K6R6) SILAC channel: cells arrested in G2 by 400 ng/ml nocodazole for 16-18 hours, ratio against the light G0 channel
Akt1 (PKBα) (human) [2] = target: Akt1 (PKBα) (human) (UniProt P31749); assay: affinity purification with mass spectrometry; SH-tagged Akt1 as bait; SILAC-labelled HEK293 cells arrested in G0 (serum starvation), G1/S (aphidicolin) and G2 (nocodazole) mixed 1:1:1; lysis in IP buffer (150 mM NaCl, 50 mM Tris-HCl pH 7.5, 1% NP-40); streptactin magnetic beads and anti-HA agarose in parallel at 4 °C, eluates pooled; LC-MS/MS, 1% G-FDR-fit, three replicates; hits of SH-tagged GFP subtracted
Akt1 (PKBα) (human) [3] = target: Akt1 (PKBα) (human) (UniProt P31749); assay: as above; remark: listed apart in the source

binding (Akt1 (PKBα) (human) [1])	binding (Akt1 (PKBα) (human) [2])	binding (Akt1 (PKBα) (human) [3])	Molecule
binds weakly	binds		HSP90AA1 (from UniProt P07900 1-732)
		binds	CDC37 (protein, UniProt Q16543 1-378) MVDYSVWDHIEVSDDEDETHPNIDTASLFRWRHQARVERMEQFQKEKEELDRGCRECKRKVAECQRKLKELEVAEGGKAELERLQAEAQQLRKEERSWEQKLEEMRKKEKSMPWNVDTLSKDGFSKSMVNTKPEKTEEDSEEVREQKHKTFVEKYEKQIKHFGMLRRWDDSQKYLSDNVHLVCEETANYLVIWCIDLEVEEKCALMEQVAHQTIVMQFILELAKSLKVDPRACFRQFFTKIKTADRQYMEGFNDELEAFKERVRGRAKLRIEKAMKEYEEEERKKRLGPGGLDPVEVYESLPEELQKCFDVKDVQMLQDAISKMDPTDAKYHMQRCIDSGLWVPNSKASEAKEGEEAGPGDPLLEAVPKTGDEKDVSV
		binds	ANLN (protein, UniProt Q9NQW6 1-1124) MDPFTEKLLERTRARRENLQRKMAERPTAAPRSMTHAKRARQPLSEASNQQPLSGGEEKSCTKPSPSKKRCSDNTEVEVSNLENKQPVESTSAKSCSPSPVSPQVQPQAADTISDSVAVPASLLGMRRGLNSRLEATAASSVKTRMQKLAEQRRRWDNDDMTDDIPESSLFSPMPSEEKAASPPRPLLSNASATPVGRRGRLANLAATICSWEDDVNHSFAKQNSVQEQPGTACLSKFSSASGASARINSSSVKQEATFCSQRDGDASLNKALSSSADDASLVNASISSSVKATSPVKSTTSITDAKSCEGQNPELLPKTPISPLKTGVSKPIVKSTLSQTVPSKGELSREICLQSQSKDKSTTPGGTGIKPFLERFGERCQEHSKESPARSTPHRTPIITPNTKAIQERLFKQDTSSSTTHLAQQLKQERQKELACLRGRFDKGNIWSAEKGGNSKSKQLETKQETHCQSTPLKKHQGVSKTQSLPVTEKVTENQIPAKNSSTEPKGFTECEMTKSSPLKITLFLEEDKSLKVTSDPKVEQKIEVIREIEMSVDDDDINSSKVINDLFSDVLEEGELDMEKSQEEMDQALAESSEEQEDALNISSMSLLAPLAQTVGVVSPESLVSTPRLELKDTSRSDESPKPGKFQRTRVPRAESGDSLGSEDRDLLYSIDAYRSQRFKETERPSIKQVIVRKEDVTSKLDEKNNAFPCQVNIKQKMQELNNEINMQQTVIYQASQALNCCVDEEHGKGSLEEAEAERLLLIATGKRTLLIDELNKLKNEGPQRKNKASPQSEFMPSKGSVTLSEIRLPLKADFVCSTVQKPDAANYYYLIILKAGAENMVATPLASTSNSLNGDALTFTTTFTLQDVSNDFEINIEVYSLVQKKDPSGLDKKKKTSKSKAITPKRLLTSITTKSNIHSSVMASPGGLSAVRTSNFALVGSYTLSLSSVGNTKFVLDKVPFLSSLEGHIYLKIKCQVNSSVEERGFLTIFEDVSGFGAWHRRWCVLSGNCISYWTYPDDEKRKNPIGRINLANCTSRQIEPANREFCARRNTFELITVRPQREDDRETLVSQCRDTLCVTKNWLSADTKEERDLWMQKLNQVLVDIRLWQPDACYKPIGKP
		binds	MYO1D (protein, UniProt O94832 1-1006) MAEQESLEFGKADFVLMDTVSMPEFMANLRLRFEKGRIYTFIGEVVVSVNPYKLLNIYGRDTIEQYKGRELYERPPHLFAIADAAYKAMKRRSKDTCIVISGESGAGKTEASKYIMQYIAAITNPSQRAEVERVKNMLLKSNCVLEAFGNAKTNRNDNSSRFGKYMDINFDFKGDPIGGHINNYLLEKSRVIVQQPGERSFHSFYQLLQGGSEQMLRSLHLQKSLSSYNYIHVGAQLKSSINDAAEFRVVADAMKVIGFKPEEIQTVYKILAAILHLGNLKFVVDGDTPLIENGKVVSIIAELLSTKTDMVEKALLYRTVATGRDIIDKQHTEQEASYGRDAFAKAIYERLFCWIVTRINDIIEVKNYDTTIHGKNTVIGVLDIYGFEIFDNNSFEQFCINYCNEKLQQLFIQLVLKQEQEEYQREGIPWKHIDYFNNQIIVDLVEQQHKGIIAILDDACMNVGKVTDEMFLEALNSKLGKHAHFSSRKLCASDKILEFDRDFRIRHYAGDVVYSVIGFIDKNKDTLFQDFKRLMYNSSNPVLKNMWPEGKLSITEVTKRPLTAATLFKNSMIALVDNLASKEPYYVRCIKPNDKKSPQIFDDERCRHQVEYLGLLENVRVRRAGFAFRQTYEKFLHRYKMISEFTWPNHDLPSDKEAVKKLIERCGFQDDVAYGKTKIFIRTPRTLFTLEELRAQMLIRIVLFLQKVWRGTLARMRYKRTKAALTIIRYYRRYKVKSYIHEVARRFHGVKTMRDYGKHVKWPSPPKVLRRFEEALQTIFNRWRASQLIKSIPASDLPQVRAKVAAVEMLKGQRADLGLQRAWEGNYLASKPDTPQTSGTFVPVANELKRKDKYMNVLFSCHVRKVNRFSKVEDRAIFVTDRHLYKMDPTKQYKVMKTIPLYNLTGLSVSNGKDQLVVFHTKDNKDLIVCLFSKQPTHESRIGELVGVLVNHFKSEKRHLQVNVTNPVQCSLHGKKCTVSVETRLNQPQPDFTKNRSGFILSVPGN
		binds	Heterogeneous Nuclear Ribonucleoprotein D like (HNRNPDL) (protein, UniProt O14979 1-420) MEVPPRLSHVPPPLFPSAPATLASRSLSHWRPRPPRQLAPLLPSLAPSSARQGARRAQRHVTAQQPSRLAGGAAIKGGRRRRPDLFRRHFKSSSIQRSAAAAAATRTARQHPPADSSVTMEDMNEYSNIEEFAEGSKINASKNQQDDGKMFIGGLSWDTSKKDLTEYLSRFGEVVDCTIKTDPVTGRSRGFGFVLFKDAASVDKVLELKEHKLDGKLIDPKRAKALKGKEPPKKVFVGGLSPDTSEEQIKEYFGAFGEIENIELPMDTKTNERRGFCFITYTDEEPVKKLLESRYHQIGSGKCEIKVAQPKEVYRQQQQQQKGGRGAAAGGRGGTRGRGRGQGQNWNQGFNNYYDQGYGNYNSAYGGDQNYSGYGGYDYTGYNYGNYGYGQGYADYSGQQSTYGKASRGGGNHQNNYQPY
